According to the supplement of paper PMC4604168 (melanoma cell lines):
This is one part of the list. Single values are uncertain, as repeats are few or missing.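 Cells were imaged in 1,536-well plates, and nuclei stained with an antibody against cleaved PARP were counted against all DNA-stained nuclei to give the apoptosis fraction. Screening doses were chosen to leave most cells alive, and resting and induced cleaved-PARP levels differ strongly between cell lines.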

Columns and labels:
Assay in all cases: cleaved PARP positive nuclei fraction relative to DMSO control; melanoma cells; higher = more apoptosis
Conditions in all cases: library dose: low library concentration; 72 h
[1] = test system: MZ2-MEL
[2] = test system: MeWo
[3] = test system: RPMI7951
[4] = test system: RVH-421
[5] = test system: SkMel28
[6] = test system: SkMel2
[7] = test system: SkMel30
[8] = test system: SkMel5
[9] = test system: UACC257
[10] = test system: UACC62
[11] = test system: WM115
[12] = test system: WM1716
[13] = test system: WM1745
[14] = test system: WM3526
[15] = test system: WM3619
[16] = test system: WM451Lu

Compound | cleaved PARP positive nuclei fraction [1] | cleaved PARP positive nuclei fraction [2] | cleaved PARP positive nuclei fraction [3] | cleaved PARP positive nuclei fraction [4] | cleaved PARP positive nuclei fraction [5] | cleaved PARP positive nuclei fraction [6] | cleaved PARP positive nuclei fraction [7] | cleaved PARP positive nuclei fraction [8] | cleaved PARP positive nuclei fraction [9] | cleaved PARP positive nuclei fraction [10] | cleaved PARP positive nuclei fraction [11] | cleaved PARP positive nuclei fraction [12] | cleaved PARP positive nuclei fraction [13] | cleaved PARP positive nuclei fraction [14] | cleaved PARP positive nuclei fraction [15] | cleaved PARP positive nuclei fraction [16]
Cc1cc(Nc2cc(N3CCN(C)CC3)nc(/C=C/c3ccccc3)n2)n[nH]1 + O=c1cc(-c2cccc3c2Sc2ccccc2S3)oc(N2CCOCC2)c1 [KU55933] (first compound 0.04 µM, partner dose 1 µM) | 109% | 90% | 93.1% | 103% | 115% | 56.6% | 187% | 71.7% | 55.9% | 120% | 77% | 48.6% | 88.3% | 71.8% | 90.6% | 139%
CN1CCN(c2ccc3nc(-c4c(N)c5c(F)cccc5[nH]c4=O)[nH]c3c2)CC1 [Dovitinib] + c1cc(-c2cnn3cc(-c4ccc(OCCN5CCCCC5)cc4)cnc23)ccn1 [Dorsomorphin] (first compound 0.1 µM, partner dose 0.4 µM) | 105% | 42.7% | 137% | 161% | 98.3% | 37.9% | 56.7% | 229% | 96.9% | 52.2% | 153% | 91.1% | 103% | 88.6% | 82.4% | 83.7%
Cc1cc(Nc2cc(N3CCN(C)CC3)nc(/C=C/c3ccccc3)n2)n[nH]1 + CC1(C)NC(=O)N(c2ccc([N+](=O)[O-])c(C(F)(F)F)c2)C1=O [nilutamide] (first compound 0.04 µM, partner dose 1 µM) | 221% | 35.8% | 155% | 109% | 63.2% | 108% | 62.3% | 80.1% | 119% | 30.6% | 114% | 21.1% | 113% | 62.3% | 95% | 136%
Nc1ccn([C@@H]2O[C@H](CO)[C@@H](O)C2(F)F)c(=O)n1 [gemcitabine] + Cn1cncc1[C@@](N)(c1ccc(Cl)cc1)c1ccc2c(c1)c(-c1cccc(Cl)c1)cc(=O)n2C [tipifarnib] (first compound 0.0004 µM, partner dose 0.01 µM) | 97.2% | 52.6% | 99% | 90.3% | 212% | 191% | 57.7% | 174% | 92% | 57.6% | 182% | 45.3% | 119% | 71.5% | 404% | 118%
Nc1nc(F)nc2c1ncn2[C@@H]1O[C@H](CO)[C@@H](O)[C@@H]1O [fludarabine] + COc1cc(Nc2ncc(F)c(Nc3ccc4c(n3)NC(=O)C(C)(C)O4)n2)cc(OC)c1OC [Tamatinib] (first compound 0.2 µM, partner dose 0.4 µM) | 70.5% | 370% | 201% | 25.6% | 90.3% | 271% | 205% | 160% | 181% | 60.5% | 117% | 92.5% | 129% | 130% | 101% | 31.7%
O=C(O)c1ccc2c(c1)nc(Nc1cccc(Cl)c1)c1ccncc12 + O=c1cc(-c2cccc3c2Sc2ccccc2S3)oc(N2CCOCC2)c1 [KU55933] (first compound 0.4 µM, partner dose 1 µM) | 115% | 250% | 76.9% | 119% | 47.9% | 66.8% | 132% | 84.7% | 44.9% | 64.5% | 186% | 391% | 182% | 262% | 204% | 35.4%
CNC(=O)c1cc(Oc2ccc(NC(=O)Nc3ccc(Cl)c(C(F)(F)F)c3)cc2)ccn1 [sorafenib] + C=CCn1c(=O)c2cnc(Nc3ccc(N4CCN(C)CC4)cc3)nc2n1-c1cccc(C(C)(C)O)n1 [MK1775] (first compound 0.4 µM, partner dose 0.02 µM) | 61.3% | 97.7% | 108% | 76.3% | 92.7% | 110% | 62.7% | 125% | 223% | 60.9% | 79.4% | 164% | 96.5% | 29.1% | 133% | 27.2%
C[C@@H](Oc1cc(-c2cnn(C3CCNCC3)c2)cnc1N)c1c(Cl)ccc(F)c1Cl [Crizotinib] + COc1cc2c(Oc3ccc4[nH]c(C)cc4c3F)ncnc2cc1OCCCN1CCCC1 [cediranib] (first compound 0.2 µM, partner dose 0.4 µM) | 119% | 203% | 85.6% | 174% | 79.8% | 122% | 62.5% | 87.2% | 108% | 102% | 66% | 58% | 93.1% | 166% | 157% | 58.9%
CNC(=O)c1cc(Oc2ccc(NC(=O)Nc3ccc(Cl)c(C(F)(F)F)c3)cc2)ccn1 [sorafenib] + O=C(O)C(=O)Nc1sc2c(c1C(=O)O)CCNC2 [TCS401] (first compound 0.4 µM, partner dose 1.66667 µM) | 87% | 34.1% | 164% | 142% | 98.9% | 107% | 246% | 75.9% | 23.8% | 479% | 35.1% | 436% | 95.2% | 81.2% | 98.5% | 32%
C[C@@H](Oc1cc(-c2cnn(C3CCNCC3)c2)cnc1N)c1c(Cl)ccc(F)c1Cl [Crizotinib] + Cc1cc([N+](=O)[O-])ccc1NS(=O)(=O)c1cc(Cl)ccc1Cl [FH535] (first compound 0.2 µM, partner dose 1 µM) | 233% | 75.3% | 145% | 142% | 74.7% | 84.2% | 83.6% | 78.4% | 240% | 168% | 192% | 140% | 93.2% | 225% | 86.7% | 73.2%
Nc1nc(F)nc2c1ncn2[C@@H]1O[C@H](CO)[C@@H](O)[C@@H]1O [fludarabine] + O=c1cc(-c2cccc3c2Sc2ccccc2S3)oc(N2CCOCC2)c1 [KU55933] (first compound 0.2 µM, partner dose 1 µM) | 133% | 513% | 165% | 107% | 103% | 465% | 805% | 109% | 117% | 145% | 101% | 25.9% | 85% | 587% | 65.7% | 610%
O=C(O)[C@@H]1[O][Sb](=[O])([O][Sb]2(=[O])[O][C@H]([C@H](O)CO)[C@H](O)[C@H](C(=O)O)[O]2)[O][C@H]([C@H](O)CO)[C@@H]1O (stereo partly drawn) [stibogluconate] + CC1(C)NC(=O)N(c2ccc([N+](=O)[O-])c(C(F)(F)F)c2)C1=O [nilutamide] (first compound 2 µM, partner dose 1 µM) | 122% | 86.3% | 54.8% | 97.8% | 244% | 87.7% | 67.6% | 188% | 96.5% | 39.3% | 48.3% | 76.1% | 160% | 66.5% | 87.6% | 219%
Nc1ncn([C@H]2C[C@H](O)[C@@H](CO)O2)c(=O)n1 [decitabine] + O=C(Nc1cccc(Cl)c1)Nc1ncc(CCNc2ncnc3ccsc23)s1 [SNS314] (first compound 0.1 µM, partner dose 0.0008 µM) | 146% | 56% | 130% | 110% | 90% | 89.9% | 68.5% | 55.7% | 195% | 56.7% | 239% | 153% | 113% | 133% | 106% | 36.9%
C=C(c1ccc(C(=O)O)cc1)c1cc2c(cc1C)C(C)(C)CCC2(C)C [Bexarotene] + O=C(O)C(=O)Nc1sc2c(c1C(=O)O)CCNC2 [TCS401] (first compound 2 µM, partner dose 1.66667 µM) | 60.7% | 32.4% | 34.5% | 134% | 139% | 58.4% | 212% | 45.5% | 95.8% | 114% | 69.2% | 109% | 97.6% | 47% | 39.8% | 80.1%
CC(C)C[C@H](NC(=O)[C@H](Cc1ccccc1)NC(=O)c1cnccn1)B(O)O [Bortezomib] + O=C1NC(=O)/C(=C/c2ccc(-c3ccc(F)cc3O)o2)S1 [AS252424] (first compound 0.001 µM, partner dose 1 µM) | 201% | 63.4% | 138% | 341% | 118% | 44.8% | 136% | 79% | 150% | 134% | 114% | 119% | 155% | 43.7% | 422% | 154%
CC(C)C[C@H](NC(=O)[C@H](Cc1ccccc1)NC(=O)c1cnccn1)B(O)O [Bortezomib] + Cn1cc(/C=C2\C(=O)Nc3cccnc32)c2ccccc21 [GW441756] (first compound 0.001 µM, partner dose 0.4 µM) | 517% | 27.1% | 41.7% | 175% | 214% | 38.5% | 268% | 87.1% | 247% | 102% | 42.3% | 1020% | 149% | 245% | 528% | 214%
C[C@@H](Oc1cc(-c2cnn(C3CCNCC3)c2)cnc1N)c1c(Cl)ccc(F)c1Cl [Crizotinib] + CC1(C)NC(=O)N(c2ccc([N+](=O)[O-])c(C(F)(F)F)c2)C1=O [nilutamide] (first compound 0.2 µM, partner dose 1 µM) | 92.2% | 107% | 28% | 80.7% | 96.6% | 86% | 204% | 38% | 162% | 77.8% | 217% | 57.4% | 83.4% | 96.5% | 101% | 118%
O=C(O)[C@@H]1[O][Sb](=[O])([O][Sb]2(=[O])[O][C@H]([C@H](O)CO)[C@H](O)[C@H](C(=O)O)[O]2)[O][C@H]([C@H](O)CO)[C@@H]1O (stereo partly drawn) [stibogluconate] + Oc1cc(-c2nc(-c3ccccc3)[nH]c2-c2ccncc2)ccc1Cl [L779450] (first compound 2 µM, partner dose 0.2 µM) | 54.7% | 113% | 81.4% | 120% | 506% | 155% | 87.3% | 73.1% | 193% | 530% | 141% | 84.8% | 101% | 100% | 96.6% | 267%

A different layout for part of the listing above.

| Compound | cleaved PARP positive nuclei fraction [1] | cleaved PARP positive nuclei fraction [2] | cleaved PARP positive nuclei fraction [3] | cleaved PARP positive nuclei fraction [4] | cleaved PARP positive nuclei fraction [5] | cleaved PARP positive nuclei fraction [6] | cleaved PARP positive nuclei fraction [7] | cleaved PARP positive nuclei fraction [8] | cleaved PARP positive nuclei fraction [9] | cleaved PARP positive nuclei fraction [10] | cleaved PARP positive nuclei fraction [11] | cleaved PARP positive nuclei fraction [12] | cleaved PARP positive nuclei fraction [13] | cleaved PARP positive nuclei fraction [14] | cleaved PARP positive nuclei fraction [15] | cleaved PARP positive nuclei fraction [16] |
| --- | --- | --- | --- | --- | --- | --- | --- | --- | --- | --- | --- | --- | --- | --- | --- | --- |
| CN1CCN(c2ccc3nc(-c4c(N)c5c(F)cccc5[nH]c4=O)[nH]c3c2)CC1 [Dovitinib] + c1cc(-c2cnn3cc(-c4ccc(OCCN5CCCCC5)cc4)cnc23)ccn1 [Dorsomorphin] (first compound 0.1 µM, partner dose 0.4 µM) | 105% | 42.7% | 137% | 161% | 98.3% | 37.9% | 56.7% | 229% | 96.9% | 52.2% | 153% | 91.1% | 103% | 88.6% | 82.4% | 83.7% |
| Cc1cc(Nc2cc(N3CCN(C)CC3)nc(/C=C/c3ccccc3)n2)n[nH]1 + CC1(C)NC(=O)N(c2ccc([N+](=O)[O-])c(C(F)(F)F)c2)C1=O [nilutamide] (first compound 0.04 µM, partner dose 1 µM) | 221% | 35.8% | 155% | 109% | 63.2% | 108% | 62.3% | 80.1% | 119% | 30.6% | 114% | 21.1% | 113% | 62.3% | 95% | 136% |
